In publication PMC7577436:
Results are given in words; binding and its absence hold for the method and conditions named. In cells and extracts the contact can be indirect. Some binding calls cover weakened binding; strength is not graded here.

Tests used:
[1] = molecular target: T1, p120 catenin (human (endogenous in HeLa)) (UniProt O60716); assay: co-IP; HeLa cells infected with HPV16.L2F (Luc) or HPV16 L1 VLP for 2.5 hrs, lysed in 1% DMNG in HN buffer; antibody against p120, protein G Dynabeads; immunoblot
T1 sequence: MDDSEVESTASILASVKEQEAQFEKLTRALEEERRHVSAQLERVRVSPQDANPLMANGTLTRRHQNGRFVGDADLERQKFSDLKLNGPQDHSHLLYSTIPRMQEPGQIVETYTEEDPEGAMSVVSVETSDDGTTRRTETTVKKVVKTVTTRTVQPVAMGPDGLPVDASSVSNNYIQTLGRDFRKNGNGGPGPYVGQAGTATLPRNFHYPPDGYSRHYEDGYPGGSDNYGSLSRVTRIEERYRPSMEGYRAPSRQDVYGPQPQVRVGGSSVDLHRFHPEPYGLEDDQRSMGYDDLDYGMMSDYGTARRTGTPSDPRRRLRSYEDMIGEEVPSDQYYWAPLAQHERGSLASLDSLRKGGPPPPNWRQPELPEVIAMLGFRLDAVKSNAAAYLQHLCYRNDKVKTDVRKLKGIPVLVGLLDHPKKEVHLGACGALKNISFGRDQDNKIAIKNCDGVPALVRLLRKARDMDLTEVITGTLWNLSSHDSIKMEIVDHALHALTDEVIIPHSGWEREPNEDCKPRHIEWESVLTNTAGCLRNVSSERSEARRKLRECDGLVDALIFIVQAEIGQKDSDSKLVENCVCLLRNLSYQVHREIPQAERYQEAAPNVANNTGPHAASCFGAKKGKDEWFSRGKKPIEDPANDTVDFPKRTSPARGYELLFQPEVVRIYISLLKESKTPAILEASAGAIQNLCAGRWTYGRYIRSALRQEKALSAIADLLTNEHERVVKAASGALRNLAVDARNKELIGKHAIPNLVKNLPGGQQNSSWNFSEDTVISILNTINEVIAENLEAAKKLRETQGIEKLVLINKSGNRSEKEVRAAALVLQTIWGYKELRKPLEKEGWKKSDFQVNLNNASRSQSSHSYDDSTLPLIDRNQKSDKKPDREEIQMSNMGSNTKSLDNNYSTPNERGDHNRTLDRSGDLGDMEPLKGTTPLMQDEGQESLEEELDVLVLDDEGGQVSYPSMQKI

[2] = molecular target: HPV16 L2 minor capsid protein with a C-terminal 3xFLAG tag, in the pseudovirus WT HPV16.L2F (HPV16) (UniProt P03107); assay: condition: only 7–10 hpi and later (not detected by immunoblotting at 16 hpi); co-IP; as a2, FLAG immunoprecipitation of L2 at late time points of the time course (7–10 hpi and 16 hpi); immunoblot for p120
[3] = molecular target: HPV16 L2 minor capsid protein with a C-terminal 3xFLAG tag, in the pseudovirus WT HPV16.L2F (HPV16) (UniProt P03107); assay: co-IP; HeLa cells infected with WT HPV16.L2F (Luc) (6 hrs in Fig 1B; time course in Fig 3), lysed in 1% DMNG in HN buffer; FLAG M2 antibody overnight at 4°C, protein G Dynabeads; immunoblot

Molecule: HPV16 L1 major capsid protein in the pseudovirus WT HPV16.L2F (from UniProt P03101 1-505)
- binding [1]: binds

Molecule: HPV16 L1 VLP (virus-like particles containing L1 only) (from UniProt P03101 1-505)
- binding [1]: binds

B1: p120 catenin (protein, UniProt O60716 1-968)
chain: MDDSEVESTASILASVKEQEAQFEKLTRALEEERRHVSAQLERVRVSPQDANPLMANGTLTRRHQNGRFVGDADLERQKFSDLKLNGPQDHSHLLYSTIPRMQEPGQIVETYTEEDPEGAMSVVSVETSDDGTTRRTETTVKKVVKTVTTRTVQPVAMGPDGLPVDASSVSNNYIQTLGRDFRKNGNGGPGPYVGQAGTATLPRNFHYPPDGYSRHYEDGYPGGSDNYGSLSRVTRIEERYRPSMEGYRAPSRQDVYGPQPQVRVGGSSVDLHRFHPEPYGLEDDQRSMGYDDLDYGMMSDYGTARRTGTPSDPRRRLRSYEDMIGEEVPSDQYYWAPLAQHERGSLASLDSLRKGGPPPPNWRQPELPEVIAMLGFRLDAVKSNAAAYLQHLCYRNDKVKTDVRKLKGIPVLVGLLDHPKKEVHLGACGALKNISFGRDQDNKIAIKNCDGVPALVRLLRKARDMDLTEVITGTLWNLSSHDSIKMEIVDHALHALTDEVIIPHSGWEREPNEDCKPRHIEWESVLTNTAGCLRNVSSERSEARRKLRECDGLVDALIFIVQAEIGQKDSDSKLVENCVCLLRNLSYQVHREIPQAERYQEAAPNVANNTGPHAASCFGAKKGKDEWFSRGKKPIEDPANDTVDFPKRTSPARGYELLFQPEVVRIYISLLKESKTPAILEASAGAIQNLCAGRWTYGRYIRSALRQEKALSAIADLLTNEHERVVKAASGALRNLAVDARNKELIGKHAIPNLVKNLPGGQQNSSWNFSEDTVISILNTINEVIAENLEAAKKLRETQGIEKLVLINKSGNRSEKEVRAAALVLQTIWGYKELRKPLEKEGWKKSDFQVNLNNASRSQSSHSYDDSTLPLIDRNQKSDKKPDREEIQMSNMGSNTKSLDNNYSTPNERGDHNRTLDRSGDLGDMEPLKGTTPLMQDEGQESLEEELDVLVLDDEGGQVSYPSMQKI
- binding [2]: no binding
- binding [3]: binds
